Results as given in publication PMC11005723, “Development of Complementary Photo‐arginine/lysine to Promote Discovery of Arg/Lys hPTMs Interactomes” (Advanced Science, 2024).
This continues a long series; more values of the same kind are listed elsewhere.

System: HEK293T nuclear lysates
Test: SILAC‐based pull‐down proteomics H4K5acK8ac/H4K5 (probes 8/5)
Assay type: binding, human
Conditions: for A6 log2 (H4K5ac8ac/H4K5): replicate A6; for B6 log2 (H4K5ac8ac/H4K5): replicate B6

probe 8: H4K5acK8ac peptide probe with photo‐arginine R(dz) and K(biotin) (SGRGKGGKGLGKGGK; photo-arginine R(dz) at 3; acetyl-lysine at 5; acetyl-lysine at 8; K(biotin) at 15)
A6 log2 (H4K5ac8ac/H4K5) (protein LUC7L3 (O95232)): -0.02795 | B6 log2 (H4K5ac8ac/H4K5) (protein LUC7L3 (O95232)): 0.1202 | A6 log2 (H4K5ac8ac/H4K5) (protein LYAR (Q9NX58)): -0.05071 | B6 log2 (H4K5ac8ac/H4K5) (protein LYAR (Q9NX58)): 0.08497 | A6 log2 (H4K5ac8ac/H4K5) (protein MAP4 (P27816)): 0.3233 | B6 log2 (H4K5ac8ac/H4K5) (protein MAP4 (P27816)): 0.1715 | A6 log2 (H4K5ac8ac/H4K5) (protein MARCKS (P29966)): -0.2392 | B6 log2 (H4K5ac8ac/H4K5) (protein MARCKS (P29966)): 0.09304 | A6 log2 (H4K5ac8ac/H4K5) (protein MCM3 (P25205)): 0.1308 | B6 log2 (H4K5ac8ac/H4K5) (protein MCM3 (P25205)): 0.08696 | A6 log2 (H4K5ac8ac/H4K5) (protein MDH2 (P40926)): 0.09494 | B6 log2 (H4K5ac8ac/H4K5) (protein MDH2 (P40926)): 0.1714 | A6 log2 (H4K5ac8ac/H4K5) (protein METAP2 (G3V1U3)): 0.04926 | B6 log2 (H4K5ac8ac/H4K5) (protein METAP2 (G3V1U3)): 0.1047 | A6 log2 (H4K5ac8ac/H4K5) (protein MPP1 (Q00013)): 0.6114 | B6 log2 (H4K5ac8ac/H4K5) (protein MPP1 (Q00013)): 0.1357 | A6 log2 (H4K5ac8ac/H4K5) (protein MRE11A (P49959)): 0.1411 | B6 log2 (H4K5ac8ac/H4K5) (protein MRE11A (P49959)): 0.1457 | A6 log2 (H4K5ac8ac/H4K5) (protein MRPL53 (Q96EL3)): 0.1082 | B6 log2 (H4K5ac8ac/H4K5) (protein MRPL53 (Q96EL3)): 0.08646 | A6 log2 (H4K5ac8ac/H4K5) (protein MTA1 (Q13330)): 0.02816 | B6 log2 (H4K5ac8ac/H4K5) (protein MTA1 (Q13330)): 0.1962 | A6 log2 (H4K5ac8ac/H4K5) (protein MTA2 (O94776)): -0.1462 | B6 log2 (H4K5ac8ac/H4K5) (protein MTA2 (O94776)): 0.09995 | A6 log2 (H4K5ac8ac/H4K5) (protein MTHFD1 (P11586)): 0.4565 | B6 log2 (H4K5ac8ac/H4K5) (protein MTHFD1 (P11586)): 0.1529 | A6 log2 (H4K5ac8ac/H4K5) (protein NCBP1 (Q09161)): 0.2871 | B6 log2 (H4K5ac8ac/H4K5) (protein NCBP1 (Q09161)): 0.08177 | A6 log2 (H4K5ac8ac/H4K5) (protein NONO (Q15233)): 0.2525 | B6 log2 (H4K5ac8ac/H4K5) (protein NONO (Q15233)): 0.1247 | A6 log2 (H4K5ac8ac/H4K5) (protein NOSIP (M0R3B2)): 0.1983 | B6 log2 (H4K5ac8ac/H4K5) (protein NOSIP (M0R3B2)): 0.2056 | A6 log2 (H4K5ac8ac/H4K5) (protein PDIA3 (P30101)): 0.1866 | B6 log2 (H4K5ac8ac/H4K5) (protein PDIA3 (P30101)): 0.1318 | A6 log2 (H4K5ac8ac/H4K5) (protein PDIA6 (Q15084)): 0.2168 | B6 log2 (H4K5ac8ac/H4K5) (protein PDIA6 (Q15084)): 0.2094 | A6 log2 (H4K5ac8ac/H4K5) (protein PDLIM1 (O00151)): 0.2528 | B6 log2 (H4K5ac8ac/H4K5) (protein PDLIM1 (O00151)): 0.0826 | A6 log2 (H4K5ac8ac/H4K5) (protein PDS5A (Q29RF7)): 0.4669 | B6 log2 (H4K5ac8ac/H4K5) (protein PDS5A (Q29RF7)): 0.2083 | A6 log2 (H4K5ac8ac/H4K5) (protein PEPD (P12955)): 0.5993 | B6 log2 (H4K5ac8ac/H4K5) (protein PEPD (P12955)): 0.0876 | A6 log2 (H4K5ac8ac/H4K5) (protein PFN1 (P07737)): 0.1687 | B6 log2 (H4K5ac8ac/H4K5) (protein PFN1 (P07737)): 0.1385 | A6 log2 (H4K5ac8ac/H4K5) (protein PGAM1 (P18669)): 0.3474 | B6 log2 (H4K5ac8ac/H4K5) (protein PGAM1 (P18669)): 0.1442 | A6 log2 (H4K5ac8ac/H4K5) (protein PHF3 (Q92576)): 0.2762 | B6 log2 (H4K5ac8ac/H4K5) (protein PHF3 (Q92576)): 0.1245 | A6 log2 (H4K5ac8ac/H4K5) (protein PHF6 (Q8IWS0)): 0.1923 | B6 log2 (H4K5ac8ac/H4K5) (protein PHF6 (Q8IWS0)): 0.2185 | A6 log2 (H4K5ac8ac/H4K5) (protein PPIL4 (Q8WUA2)): -0.01885 | B6 log2 (H4K5ac8ac/H4K5) (protein PPIL4 (Q8WUA2)): 0.132 | A6 log2 (H4K5ac8ac/H4K5) (protein PPP2CB (P62714)): 0.1151 | B6 log2 (H4K5ac8ac/H4K5) (protein PPP2CB (P62714)): 0.1355 | A6 log2 (H4K5ac8ac/H4K5) (protein PRMT1 (H7C2I1)): 0.02607 | B6 log2 (H4K5ac8ac/H4K5) (protein PRMT1 (H7C2I1)): 0.1543 | A6 log2 (H4K5ac8ac/H4K5) (protein PSMG2 (V9GZ55)): 0.3486 | B6 log2 (H4K5ac8ac/H4K5) (protein PSMG2 (V9GZ55)): 0.2118 | A6 log2 (H4K5ac8ac/H4K5) (protein PTPN1 (P18031)): 0.5362 | B6 log2 (H4K5ac8ac/H4K5) (protein PTPN1 (P18031)): 0.1917 | A6 log2 (H4K5ac8ac/H4K5) (protein RACGAP1 (Q9H0H5)): -0.2953 | B6 log2 (H4K5ac8ac/H4K5) (protein RACGAP1 (Q9H0H5)): 0.08375 | A6 log2 (H4K5ac8ac/H4K5) (protein RANBP2 (P49792)): 0.2105 | B6 log2 (H4K5ac8ac/H4K5) (protein RANBP2 (P49792)): 0.0877 | A6 log2 (H4K5ac8ac/H4K5) (protein RAP1A (P62834)): 0.3804 | B6 log2 (H4K5ac8ac/H4K5) (protein RAP1A (P62834)): 0.1782 | A6 log2 (H4K5ac8ac/H4K5) (protein RBM4 (Q9BWF3)): 0.441 | B6 log2 (H4K5ac8ac/H4K5) (protein RBM4 (Q9BWF3)): 0.172 | A6 log2 (H4K5ac8ac/H4K5) (protein RBM14 (Q96PK6)): 0.2185 | B6 log2 (H4K5ac8ac/H4K5) (protein RBM14 (Q96PK6)): 0.1747 | A6 log2 (H4K5ac8ac/H4K5) (protein RCC2 (Q9P258)): 0.1006 | B6 log2 (H4K5ac8ac/H4K5) (protein RCC2 (Q9P258)): 0.08968 | A6 log2 (H4K5ac8ac/H4K5) (protein RFX5 (P48382)): 0.2839 | B6 log2 (H4K5ac8ac/H4K5) (protein RFX5 (P48382)): 0.1163 | A6 log2 (H4K5ac8ac/H4K5) (protein RNF126 (K7EIY6)): 0.1295 | B6 log2 (H4K5ac8ac/H4K5) (protein RNF126 (K7EIY6)): 0.1252 | A6 log2 (H4K5ac8ac/H4K5) (protein SALL2 (F5H433)): 0.5054 | B6 log2 (H4K5ac8ac/H4K5) (protein SALL2 (F5H433)): 0.2147 | A6 log2 (H4K5ac8ac/H4K5) (protein SCML2 (Q9UQR0)): 0.3736 | B6 log2 (H4K5ac8ac/H4K5) (protein SCML2 (Q9UQR0)): 0.1694 | A6 log2 (H4K5ac8ac/H4K5) (protein SEPHS1 (P49903)): 0.2524 | B6 log2 (H4K5ac8ac/H4K5) (protein SEPHS1 (P49903)): 0.1557 | A6 log2 (H4K5ac8ac/H4K5) (protein SFPQ (P23246)): 0.1435 | B6 log2 (H4K5ac8ac/H4K5) (protein SFPQ (P23246)): 0.1775 | A6 log2 (H4K5ac8ac/H4K5) (protein SHMT2 (P34897)): -0.116 | B6 log2 (H4K5ac8ac/H4K5) (protein SHMT2 (P34897)): 0.08856 | A6 log2 (H4K5ac8ac/H4K5) (protein SMAD4 (K7ES96)): 0.2948 | B6 log2 (H4K5ac8ac/H4K5) (protein SMAD4 (K7ES96)): 0.1131 | A6 log2 (H4K5ac8ac/H4K5) (protein SMC3 (Q9UQE7)): 0.3104 | B6 log2 (H4K5ac8ac/H4K5) (protein SMC3 (Q9UQE7)): 0.1783 | A6 log2 (H4K5ac8ac/H4K5) (protein SMCHD1 (A6NHR9)): 0.3298
